Experimental findings from paper PMC11097450 are described below.

The assay concerns the target TRIM1-269aa-Flag (human). Briefly: affinity purification with mass spectrometry; IP with anti-Flag antibody (or IgG) from 293T cells with TRIM1-269aa-Flag or control vector (PCDH); gel bands digested with trypsin, LC-MS.

These are yes or no findings as the source states them, for the method shown. Binding seen in cells or lysates may run through a third protein. Here binding means that the protein was enriched with, or labelled near, the bait; the list need not be complete.

B1: MARCKS (myristoylated alanine-rich c-kinase substrate) (protein, UniProt P29966 1-332)
chain: MGAQFSKTAAKGEAAAERPGEAAVASSPSKANGQENGHVKVNGDASPAAAESGAKEELQANGSAPAADKEEPAAAGSGAASPSAAEKGEPAAAAAPEAGASPVEKEAPAEGEAAEPGSPTAAEGEAASAASSTSSPKAEDGATPSPSNETPKKKKKRFSFKKSFKLSGFSFKKNKKEAGEGGEAEAPAAEGGKDEAAGGAAAAAAEAGAASGEQAAAPGEEAAAGEEGAAGGDPQEAKPQEAAVAPEKPPASDETKAAEEPSKVEEKKAEEAGASAAACEAPSAAGPGAPPEQEAAPAEEPAAAAASSACAAPSQEAQPECSPEAPPAEAAE
Regarding B1, the binding entry is on record as “binds”.
